Test results from the supplement of paper PMC3334620.
Whole data set: some 33,000 sequences, median “E-score (-0.5 to 0.5)” near -0.0059, cut for the highest 2% near 0.26. The list shows a part of the results.

The sequences below were run against T1, Cin5 (UniProt P40917) (assay: PBM E-score (8-mer binding enrichment) (E-score (-0.5 to 0.5)); higher = stronger / more preferred TF binding). Conditions: protein concentration: 100 nM; construct: GST-full length.
T1 sequence: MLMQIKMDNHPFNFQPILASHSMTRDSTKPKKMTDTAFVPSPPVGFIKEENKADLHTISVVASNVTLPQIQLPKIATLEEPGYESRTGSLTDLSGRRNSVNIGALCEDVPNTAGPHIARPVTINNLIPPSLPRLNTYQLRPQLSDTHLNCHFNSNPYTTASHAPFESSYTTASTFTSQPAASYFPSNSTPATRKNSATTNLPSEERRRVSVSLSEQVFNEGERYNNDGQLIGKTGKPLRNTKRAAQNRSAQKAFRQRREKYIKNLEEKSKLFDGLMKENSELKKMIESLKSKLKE
Procedure, shortened: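 Each ungapped eight-base word and its reverse complement, pooled, received an E-score from the Universal PBM Analysis Suite. Underlying scans, normalised with masliner, recorded fluorescent anti-GST bound to GST-tagged yeast transcription factors. These were applied at about 100-200 nM to universal all-10-mer Agilent arrays double-stranded by primer extension.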

Sequence	PBM E-score
CATTACAC	0.159
GGTTCTAA	0.0807
CGATATGC	0.0862
CTCTAACA	-0.0488
AAGTGGCG	0.198
CTGAAGGA	-0.105
CATTCTGG	0.0333
AGTAGTCC	0.0913
CTCTAGTA	0.0297
AATTCTTC	0.0767
ACCACGAT	0.161
GCTCGTGA	0.00773
ACCCACCA	0.0938
CATCCGGA	0.0595
ATGTCGAA	-0.0258
GGGGCGGA	-0.142
TACACTCA	0.0959
AATGAATG	0.234
CTAAAACA	0.0143
AGACTCAA	-0.143
CATTAGAG	-0.115
CTTAGAAC	-0.0472
CCTCGGTC	-0.249
TGTTTTAA	0.117
CGAATGGA	0.0967

6 entries from above, bar-delimited.
Sequence | PBM E-score
CATTCTGG | 0.0333
AGTAGTCC | 0.0913
CTCTAGTA | 0.0297
AATTCTTC | 0.0767
ACCACGAT | 0.161
GCTCGTGA | 0.00773

The list continues.

Sequence	PBM E-score
CATACACA	0.0703
AATTAAAA	0.0759
ACGTTTAC	-0.0238
ATTCCCGA	0.0531
GAGAAAGA	0.136
TCTAGGAA	-0.0991
CGAAAACC	-0.0599
AATATTAT	0.343
CGTTAACC	0.0331
GACTGAAA	-0.0204
AGCCATCA	0.131
AGATACTA	0.0732
AGGCCCTA	-0.228
GAACAGCC	-0.205
ACATTCGG	0.11
AGAGTCAC	-0.196
ACTAGTAA	0.205
CACTTGGA	0.0127
CAGGTAGG	-0.0808
TGACTACA	-0.0081
AACCATAC	0.0146
CAACTGCG	-0.12
CTCCCTCC	-0.137
GAGCAAAA	-0.0887
ATCCAGGA	0.0322

Sequence	PBM E-score
CACTACGC	-0.239
TGGATCCA	-0.0145
GGCGAAAC	0.0435
GTAGATGA	0.146
GATCCCAC	0.143
ATTTGCGC	0.0411
AGTGTTAT	0.165
AATCTTAG	0.0668
AAAGAGGG	-0.118
AGCGCTAC	-0.238
CTGCCATA	0.11
AGCATATC	0.117
GCGTTTGA	-0.0954
AATATTGT	0.28
AATCTAAC	0.0851
TAACCATA	0.0856
ACTACGTA	0.169
ACACCATA	0.0793
CCCATCTA	0.0302
ATGATCCA	-0.0422
CTACGTGA	-0.0669
CCCGAGAG	-0.214
CCCAACTA	0.245
AATTCGCC	0.154
ATAGCTGC	0.145

Sequence	PBM E-score
GCGGGCAA	0.0765
CATTCGTC	0.0974
CTAAGTCA	0.0222
GGTTGGCA	-0.177
CGCGGTCA	0.00133
ACTTACAG	0.0272
GAACCTAC	-0.0937
ACATCGGG	-0.00315
ACTTAGTA	0.188
AAGCCTGA	-0.129
GTACTAGA	0.0607
GCTGACAA	0.203
AAAATCCC	-0.0252
CTTGCAAC	0.125
GCCGCAAC	-0.0358
ATACAGAG	0.0186
AGTACGTG	-0.096
GGTGCCCA	-0.207
ATCAACGC	-0.0375
AGAAGAAG	-0.101
CTCAGGCA	0.0255
CCAGCTAG	-0.202
CCTGTGCC	-0.219
GATAGCGA	0.0136
ATACCGCA	0.00556

Sequence	PBM E-score
CTGGTCCA	-0.0813
AATACGAT	0.13
CCGATGCA	0.0504
CCGGATCA	0.11
GTTGGCGA	-0.0854
CTCTACTA	0.064
ATACAGGG	0.121
CAGTCTCG	-0.225
ATACGCGA	-0.0925
ACCGTTGA	-0.128
CTGACCCC	-0.247
ACACTTAT	0.0573
CACTTCAG	-0.102
ACCGTACT	0.0396
AATCCTCT	-0.142
CAGGCGGC	-0.168
CATATCGA	0.138
GGTTGGGA	-0.0704
CTCAACAC	0.0856
AACACAGC	0.205
CGGCTTGC	0.0619
ATCTATAC	0.131
CCACTCCC	-0.0617
GACATCAA	0.235
CTCCCGCA	-0.069

Sequence	PBM E-score
GGTAGTAC	-0.0268
ACCCACCC	0.323
AGAAAGCA	0.192
TGAAAACA	0.112
AACACAAG	-0.0154
ACTTGTGA	0.101
AAGGTATG	0.159
ATTCGAGA	-0.0222
GGAAGGAA	-0.06
AGTCCCTC	-0.24
GCCCGAAC	0.0545
ACTCCGTC	0.0828
AGCTAGCC	-0.0358
CCTCAACC	-0.198
AAGTGGGA	0.177
CTCTCGGC	-0.143
AGGGCACA	0.0508
GATCCTCA	0.0179
AGCATGAT	0.0431
GGGATCCC	-0.117
CAGTCTCA	-0.0104
ATGCCAGC	-0.093
AGTAACAT	0.14
ATGGACGC	-0.0507
AGACGTAG	-0.00459

Sequence	PBM E-score
AAGGCCGA	-0.0702
ACCTACGC	0.0255
CGCGAACG	-0.0651
AGCTGACC	0.11
CGGCCTCC	-0.194
GAATAGGC	0.065
AAACGATC	-0.0873
GCTGGAAA	-0.0311
GAGGCATA	-0.00938
CATTTCAA	0.178
TGCCTGAA	-0.173
AATCTCCG	0.0667
AGGAATAG	0.0234
ACTCACAG	0.0289
CTCCGATC	-0.161
CTCGGCCC	-0.235
ATCGCCTC	0.047
ATAAACCA	0.00546
AAAGTATC	0.115
ACTGCCGG	0.0623
AGTGCTTC	-0.121
GGGATGAA	-0.0257
AAAACTTC	-0.0941
GAAGGTGA	-0.0364
ACTACTGA	-0.0575

Sequence	PBM E-score
AGCATTAC	0.0249
CTCGGACA	-0.0297
GCATACCC	0.1
CTCTGCCA	-0.187
CAAACGTC	-0.147
CCTAACTC	-0.0248
GCTCGTTA	-0.0654
ATAACAAC	0.2
ATATTAAC	0.28
CGTAGGCA	-0.195
AATGGCTC	0.0552
CCACAATA	0.00199
CTAATTGA	0.0779
GCAATCGC	-0.104
ATCTGATA	-0.00845
ATTGTCTA	0.273
GCGGTAAA	0.0216
ACCTCCCC	-0.144
CCCGCCCG	0.0583
ACGCTCCA	-0.0796
ATACCTCC	-0.237
AACATACC	0.0214
TCTCCGAA	-0.105
AGATTGAA	0.0552
TCATACCA	0.167

Sequence	PBM E-score
ACAGGATA	-0.0136
CGCGGTAG	-0.00033
GCTACAGA	-0.164
CCTGACCA	0.0699
CAGACTTA	-0.169
ATCTCAAA	0.166
GCGACAAA	0.0727
ACACTGAA	0.2
TGTGGCAA	-0.0204
GACTCCAA	-0.226
CAAGACTA	-0.0264
CATGGGAG	-0.0247
GATATCAA	0.0641
GAACTGCA	0.0151
CGGGAACA	0.123
CCAAGCTA	-0.133
AAATAGAG	-0.0761
GACGCCAA	-0.219
AACGACAG	-0.0436
GAAGAGTA	0.0291
CCCAGAAA	0.0725
GGGCAAAC	0.00032
TAGCCGGA	0.0114
CTCGGCAC	-0.0879
ACGTGTGG	-0.161

Reformatted comma-delimited: part of the list above
Sequence,PBM E-score
CGAATGGA,0.0967
ATCTATAC,0.131
CTCCCGCA,-0.069
AGAAAGCA,0.192
ACTCCGTC,0.0828

More results

Sequence	PBM E-score
CGTTCTGC	0.0332
AAGGCTAC	-0.135
ACCAAGCC	-0.172
AGTTGTGG	0.232
AAACGAGC	-0.0828
ACACGTCT	-0.177
CTTGTACA	-0.112
ATTCACCA	-0.0335
CTACACCA	-0.00077
CCAACATC	0.109
AAACCGCT	0.0176
ACATGGTC	0.0743
CCTGAGCC	-0.193
AGTTTAAT	0.0382
TCTTGGCA	0.0567
AATCTAAG	0.0243
CATCCGTA	0.191
CCGCCAAG	-0.175
CACACGTG	-0.111
GAGCACCA	-0.128
ACAAGACG	-0.0511
CGCCTGGC	-0.199
AGGGGTGG	0.00209
GATCAAGC	-0.0258
CAAGACTG	-0.0812

Sequence	PBM E-score
CAATAGTG	0.0181
GGTGGAGA	-0.256
CAGATTGA	0.0594
CTGGTGAC	-0.13
GGAAAGCA	-0.112
AGAAACTG	-0.0909
CTCCTGCC	-0.108
GGCAATAA	0.155
CGACTTAA	-0.137
CGAACTGC	0.0147
TGTCGAAA	-0.0736
AGTAAGGG	0.0482
ATCTAGTG	0.0477
ATTGGAAG	0.0337
GCACAATA	-0.0962
ATGTATCC	0.0758
GATGCGAA	0.144
GGCTCGCA	0.0063
ACCCTGCC	-0.173
ATACCATG	0.0359
ACAAATCT	0.00999
AGGAATAA	0.109
CCGATTTA	0.0837
ACCTAAGA	0.131
AGGATGGC	-0.0711

Sequence	PBM E-score
ACACTCCG	0.0345
CAGAGTGA	0.111
AACTCGAT	0.15
AAGACCAC	-0.205
CTCATTGA	-0.207
CAGTGTGC	-0.163
ATAAGATA	0.223
AGTATAAG	0.239
CGACAGTC	-0.299
CGAGAGTA	0.115
AGCAGCTG	-0.0182
AAACCGTT	-0.0552
GTAGGCGA	-0.0604
GTAGCCAA	-0.0505
CGCTGGCC	-0.393
CCAGAGAG	-0.174
AATCACCG	0.0462
TGCCGAAA	-0.155
CCGCTATA	0.0976
AATAGGAA	0.15
AGGCTATC	-0.0571
AATTCGAT	0.158
GTACTCAA	0.101
ACGTGGGA	-0.162
AGAGGTTA	0.0261

Taken from above.
In PBM E-score, GTAGGCGA has the entry -0.0604
In PBM E-score, CCGCTATA has the entry 0.0976

(continued)

Sequence	PBM E-score
ACAACTCA	0.153
CCAGACGG	-0.29
CGATGCCC	-0.287
CGGTGCGA	-0.0828
AATTGGAA	0.127
ATTGGAGA	0.173
CCCCTGCC	-0.0676
AACAGGGT	-0.118
TCACATGA	-0.107
GAATACGA	0.101
GGGGACAA	-0.116
AACTACTG	0.0741
CACGAGTA	0.128
ATAGACAA	0.211
AGTTGCGC	0.0668
ATGGATAG	0.0793
GGGGGTAA	-0.371
AAGTTAGT	-0.0212
GGGGGGGA	-0.47
AAGTAACG	-0.0154
ACAGGGTA	0.0496
GATGAGGA	-0.0911
GGATTGAA	0.104
ATTCGAGC	-0.127
TATAGACA	0.147

Sequence	PBM E-score
GTATGAAA	0.139
AGGCGTTC	-0.281
CGCTGCCA	-0.143
CCACGATC	0.131
GTCTTTGA	-0.241
AGCAGACG	0.0437
ACGTTTAT	0.1
TAGGTACA	-0.146
CAACATCA	0.201
CCTGCGGA	-0.0122
ACCCCCCC	-0.492
ACCCCGGC	-0.182
CTCAAGTA	-0.0379
AGGCCAGC	-0.254
GATAACGC	-0.00744
CAGATACA	0.119
CGATAACG	0.00767
CATGCATC	0.169
ACCAAAAT	0.0941
